The text below walks through data of the supplement of paper PMC10849652.

Protein sequences, listed by entry. Tags and fused reporters are not part of them. Lines headed by an entry give the natural chain unless they say otherwise; changes in a name come on top.
UniProt Q15004: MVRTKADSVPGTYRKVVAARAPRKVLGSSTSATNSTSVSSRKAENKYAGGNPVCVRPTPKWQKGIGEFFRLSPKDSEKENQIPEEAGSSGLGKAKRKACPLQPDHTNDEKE
UniProt P68402: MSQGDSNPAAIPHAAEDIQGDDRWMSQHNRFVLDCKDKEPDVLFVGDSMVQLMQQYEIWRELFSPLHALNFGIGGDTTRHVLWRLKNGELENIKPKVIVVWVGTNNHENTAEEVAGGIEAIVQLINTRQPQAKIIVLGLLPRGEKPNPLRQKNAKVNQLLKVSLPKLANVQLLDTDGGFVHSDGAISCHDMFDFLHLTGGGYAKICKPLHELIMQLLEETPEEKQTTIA
UniProt P49585: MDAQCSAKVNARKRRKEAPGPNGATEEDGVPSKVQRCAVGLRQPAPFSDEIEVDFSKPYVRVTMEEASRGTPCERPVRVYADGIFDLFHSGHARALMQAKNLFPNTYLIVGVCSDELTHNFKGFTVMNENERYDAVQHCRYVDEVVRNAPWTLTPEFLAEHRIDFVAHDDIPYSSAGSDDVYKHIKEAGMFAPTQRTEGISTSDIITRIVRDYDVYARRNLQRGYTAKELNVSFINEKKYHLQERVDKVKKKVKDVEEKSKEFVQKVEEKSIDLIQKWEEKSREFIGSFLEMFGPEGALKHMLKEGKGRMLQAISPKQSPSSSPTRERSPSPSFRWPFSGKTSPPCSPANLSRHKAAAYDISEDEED
UniProt Q13153, whole entry, looked up: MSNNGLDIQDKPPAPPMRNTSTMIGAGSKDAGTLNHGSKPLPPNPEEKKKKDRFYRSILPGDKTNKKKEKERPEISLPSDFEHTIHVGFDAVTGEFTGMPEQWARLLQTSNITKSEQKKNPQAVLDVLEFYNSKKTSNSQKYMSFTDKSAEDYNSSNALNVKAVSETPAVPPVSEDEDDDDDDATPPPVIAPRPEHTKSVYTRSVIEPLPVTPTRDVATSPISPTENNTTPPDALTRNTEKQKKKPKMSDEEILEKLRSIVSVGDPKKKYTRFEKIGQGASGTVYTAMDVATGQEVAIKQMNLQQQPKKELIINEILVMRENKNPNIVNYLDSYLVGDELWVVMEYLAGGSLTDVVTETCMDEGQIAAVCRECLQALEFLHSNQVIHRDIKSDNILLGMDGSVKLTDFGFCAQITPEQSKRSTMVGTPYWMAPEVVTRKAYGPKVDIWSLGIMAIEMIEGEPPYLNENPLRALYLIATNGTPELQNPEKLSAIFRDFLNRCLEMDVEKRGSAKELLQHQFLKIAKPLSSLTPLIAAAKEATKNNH
UniProt Q29RF7: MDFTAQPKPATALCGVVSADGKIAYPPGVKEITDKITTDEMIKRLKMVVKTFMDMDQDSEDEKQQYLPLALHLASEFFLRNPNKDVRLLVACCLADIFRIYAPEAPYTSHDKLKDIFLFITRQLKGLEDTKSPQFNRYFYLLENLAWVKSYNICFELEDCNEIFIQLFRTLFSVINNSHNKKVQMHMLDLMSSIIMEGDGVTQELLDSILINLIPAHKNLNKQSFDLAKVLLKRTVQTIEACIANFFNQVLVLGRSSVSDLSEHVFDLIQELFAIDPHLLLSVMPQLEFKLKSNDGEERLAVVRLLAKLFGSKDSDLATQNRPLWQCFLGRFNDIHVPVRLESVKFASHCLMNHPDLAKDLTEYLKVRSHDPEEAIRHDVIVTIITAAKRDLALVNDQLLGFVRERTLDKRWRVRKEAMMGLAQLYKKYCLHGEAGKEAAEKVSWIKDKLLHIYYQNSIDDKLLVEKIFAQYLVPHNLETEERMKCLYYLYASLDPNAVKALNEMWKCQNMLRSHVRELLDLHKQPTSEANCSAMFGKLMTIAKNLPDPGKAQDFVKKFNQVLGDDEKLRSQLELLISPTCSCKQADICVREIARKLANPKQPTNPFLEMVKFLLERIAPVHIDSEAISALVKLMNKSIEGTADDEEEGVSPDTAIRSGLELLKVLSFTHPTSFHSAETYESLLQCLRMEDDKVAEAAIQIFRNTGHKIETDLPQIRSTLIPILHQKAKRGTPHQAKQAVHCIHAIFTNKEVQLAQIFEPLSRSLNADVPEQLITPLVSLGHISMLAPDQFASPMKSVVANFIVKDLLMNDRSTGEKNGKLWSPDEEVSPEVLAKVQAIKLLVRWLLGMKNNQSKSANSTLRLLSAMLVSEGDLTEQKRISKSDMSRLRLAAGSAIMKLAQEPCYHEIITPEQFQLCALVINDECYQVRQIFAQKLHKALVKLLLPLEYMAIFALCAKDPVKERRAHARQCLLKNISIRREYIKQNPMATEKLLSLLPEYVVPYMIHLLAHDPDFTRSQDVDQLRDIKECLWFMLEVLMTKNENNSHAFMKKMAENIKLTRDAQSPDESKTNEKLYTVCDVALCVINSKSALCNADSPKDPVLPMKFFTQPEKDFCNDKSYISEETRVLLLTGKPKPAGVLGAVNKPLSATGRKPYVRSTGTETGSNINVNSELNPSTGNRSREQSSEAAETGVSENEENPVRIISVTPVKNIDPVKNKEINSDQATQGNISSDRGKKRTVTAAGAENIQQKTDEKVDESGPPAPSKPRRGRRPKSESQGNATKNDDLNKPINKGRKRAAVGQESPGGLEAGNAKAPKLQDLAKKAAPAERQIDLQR
UniProt Q15366, whole entry, looked up: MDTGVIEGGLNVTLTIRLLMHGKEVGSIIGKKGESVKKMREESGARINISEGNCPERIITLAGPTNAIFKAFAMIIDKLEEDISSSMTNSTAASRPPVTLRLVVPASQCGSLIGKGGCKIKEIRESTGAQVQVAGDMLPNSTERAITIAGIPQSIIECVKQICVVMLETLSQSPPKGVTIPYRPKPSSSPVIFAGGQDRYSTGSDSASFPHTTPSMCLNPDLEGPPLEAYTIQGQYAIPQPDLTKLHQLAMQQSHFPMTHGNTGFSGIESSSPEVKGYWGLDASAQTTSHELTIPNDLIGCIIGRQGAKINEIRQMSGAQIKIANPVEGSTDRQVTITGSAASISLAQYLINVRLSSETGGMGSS
UniProt Q15121, whole entry, looked up: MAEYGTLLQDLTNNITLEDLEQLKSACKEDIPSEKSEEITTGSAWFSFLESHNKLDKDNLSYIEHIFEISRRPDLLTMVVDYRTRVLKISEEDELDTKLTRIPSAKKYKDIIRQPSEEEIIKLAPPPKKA
UniProt Q96KB5: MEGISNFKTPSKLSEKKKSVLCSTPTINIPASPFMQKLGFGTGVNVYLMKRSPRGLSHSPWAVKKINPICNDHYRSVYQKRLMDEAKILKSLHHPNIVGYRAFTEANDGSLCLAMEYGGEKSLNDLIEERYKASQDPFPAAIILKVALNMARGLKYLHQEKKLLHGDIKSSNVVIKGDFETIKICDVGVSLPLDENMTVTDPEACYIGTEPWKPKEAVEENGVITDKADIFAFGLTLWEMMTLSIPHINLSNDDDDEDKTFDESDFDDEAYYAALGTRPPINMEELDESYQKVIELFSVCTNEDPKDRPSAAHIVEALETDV
UniProt Q53EL6: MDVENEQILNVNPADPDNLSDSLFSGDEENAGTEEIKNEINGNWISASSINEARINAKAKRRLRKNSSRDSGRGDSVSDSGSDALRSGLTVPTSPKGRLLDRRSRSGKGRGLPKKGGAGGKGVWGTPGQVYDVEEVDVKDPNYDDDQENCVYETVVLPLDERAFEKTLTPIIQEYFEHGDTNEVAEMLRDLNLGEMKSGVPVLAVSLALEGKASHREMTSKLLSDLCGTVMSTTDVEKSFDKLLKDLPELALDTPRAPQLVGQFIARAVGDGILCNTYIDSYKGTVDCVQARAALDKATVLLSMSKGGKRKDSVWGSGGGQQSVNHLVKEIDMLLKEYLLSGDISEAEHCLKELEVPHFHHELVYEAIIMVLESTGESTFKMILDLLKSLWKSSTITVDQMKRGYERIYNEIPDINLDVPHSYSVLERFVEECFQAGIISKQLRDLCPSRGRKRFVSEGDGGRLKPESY
UniProt Q9NR12, whole entry, looked up: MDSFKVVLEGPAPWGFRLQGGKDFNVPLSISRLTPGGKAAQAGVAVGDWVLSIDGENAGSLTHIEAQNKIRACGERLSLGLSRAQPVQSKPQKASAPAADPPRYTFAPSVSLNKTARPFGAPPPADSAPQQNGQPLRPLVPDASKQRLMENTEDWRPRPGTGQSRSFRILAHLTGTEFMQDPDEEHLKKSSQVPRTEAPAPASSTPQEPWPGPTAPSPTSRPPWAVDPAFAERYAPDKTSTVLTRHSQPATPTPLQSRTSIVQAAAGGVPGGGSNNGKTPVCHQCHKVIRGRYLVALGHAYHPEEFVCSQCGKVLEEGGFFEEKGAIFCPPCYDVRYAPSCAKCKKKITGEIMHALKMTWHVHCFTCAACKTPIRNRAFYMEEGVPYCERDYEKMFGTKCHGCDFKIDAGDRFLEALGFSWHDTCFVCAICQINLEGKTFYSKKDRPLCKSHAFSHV
UniProt Q8IZL8: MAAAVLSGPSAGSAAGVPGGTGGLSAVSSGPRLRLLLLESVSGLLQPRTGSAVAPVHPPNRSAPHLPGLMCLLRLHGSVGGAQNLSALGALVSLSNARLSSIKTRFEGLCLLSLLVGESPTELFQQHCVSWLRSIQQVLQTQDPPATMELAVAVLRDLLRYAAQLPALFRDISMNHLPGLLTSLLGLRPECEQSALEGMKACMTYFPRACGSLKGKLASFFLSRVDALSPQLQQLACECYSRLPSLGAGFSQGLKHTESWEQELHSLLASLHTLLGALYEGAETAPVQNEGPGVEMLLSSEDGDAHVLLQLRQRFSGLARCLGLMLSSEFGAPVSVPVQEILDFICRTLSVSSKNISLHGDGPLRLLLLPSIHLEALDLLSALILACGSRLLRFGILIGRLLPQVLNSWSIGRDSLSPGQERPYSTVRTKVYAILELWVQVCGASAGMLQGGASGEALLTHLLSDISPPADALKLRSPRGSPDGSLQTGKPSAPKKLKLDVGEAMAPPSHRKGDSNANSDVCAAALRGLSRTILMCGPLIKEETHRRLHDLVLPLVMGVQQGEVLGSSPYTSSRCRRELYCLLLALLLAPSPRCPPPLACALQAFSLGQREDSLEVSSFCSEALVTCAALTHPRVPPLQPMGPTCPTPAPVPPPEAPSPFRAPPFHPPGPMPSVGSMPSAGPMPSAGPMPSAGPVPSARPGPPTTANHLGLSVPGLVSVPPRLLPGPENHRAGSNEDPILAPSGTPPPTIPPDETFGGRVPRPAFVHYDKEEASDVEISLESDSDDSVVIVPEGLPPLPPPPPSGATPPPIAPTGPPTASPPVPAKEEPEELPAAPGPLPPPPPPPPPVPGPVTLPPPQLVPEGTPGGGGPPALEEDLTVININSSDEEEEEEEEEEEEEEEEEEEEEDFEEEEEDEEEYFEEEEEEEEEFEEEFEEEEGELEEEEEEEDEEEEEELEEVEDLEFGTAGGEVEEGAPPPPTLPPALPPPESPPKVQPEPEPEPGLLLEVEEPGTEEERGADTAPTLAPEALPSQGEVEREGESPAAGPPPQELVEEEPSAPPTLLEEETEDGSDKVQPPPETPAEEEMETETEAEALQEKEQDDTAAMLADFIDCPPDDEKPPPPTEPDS
UniProt Q9H4Z3: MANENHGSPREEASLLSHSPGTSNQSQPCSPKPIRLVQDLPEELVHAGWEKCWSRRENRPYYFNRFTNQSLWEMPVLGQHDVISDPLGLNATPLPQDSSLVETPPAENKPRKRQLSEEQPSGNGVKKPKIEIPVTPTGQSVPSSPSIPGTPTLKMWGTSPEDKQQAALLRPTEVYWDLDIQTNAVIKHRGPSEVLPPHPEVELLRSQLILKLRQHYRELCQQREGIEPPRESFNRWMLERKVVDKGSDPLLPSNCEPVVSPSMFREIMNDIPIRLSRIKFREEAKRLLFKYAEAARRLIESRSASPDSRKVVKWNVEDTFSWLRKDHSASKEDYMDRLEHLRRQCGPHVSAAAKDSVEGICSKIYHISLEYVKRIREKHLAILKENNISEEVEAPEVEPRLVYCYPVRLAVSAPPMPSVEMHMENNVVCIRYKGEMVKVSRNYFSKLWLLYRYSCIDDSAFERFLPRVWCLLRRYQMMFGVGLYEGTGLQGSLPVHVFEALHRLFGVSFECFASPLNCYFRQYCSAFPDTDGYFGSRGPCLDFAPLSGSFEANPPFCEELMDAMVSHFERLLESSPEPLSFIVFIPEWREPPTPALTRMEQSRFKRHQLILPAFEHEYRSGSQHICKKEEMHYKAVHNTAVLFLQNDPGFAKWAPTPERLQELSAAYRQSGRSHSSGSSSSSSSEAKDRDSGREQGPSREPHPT
UniProt P40425: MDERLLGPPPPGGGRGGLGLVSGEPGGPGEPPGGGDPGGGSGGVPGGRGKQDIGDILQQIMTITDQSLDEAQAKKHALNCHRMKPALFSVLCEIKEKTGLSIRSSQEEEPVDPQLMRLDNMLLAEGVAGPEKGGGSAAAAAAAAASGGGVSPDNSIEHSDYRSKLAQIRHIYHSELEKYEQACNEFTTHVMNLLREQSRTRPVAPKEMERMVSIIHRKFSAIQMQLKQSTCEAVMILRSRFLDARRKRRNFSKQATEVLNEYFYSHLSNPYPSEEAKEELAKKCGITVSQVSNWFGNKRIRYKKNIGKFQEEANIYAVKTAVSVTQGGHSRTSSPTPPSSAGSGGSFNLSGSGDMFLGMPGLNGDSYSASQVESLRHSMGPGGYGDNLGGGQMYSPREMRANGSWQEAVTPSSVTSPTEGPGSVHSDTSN

Some of the results follow.

Compound in one assay: COC(=O)N[C@@H](C)CNc1nccc(-c2cn(C(C)C)nc2-c2cc(Cl)cc(NS(C)(=O)=O)c2F)n1 [encorafenib]
As to the kind of experiment: log2 fold change, soluble protein after heating vs DMSO (PISA); higher = thermal stabilisation; K562 cells, 10 uM, 30 min; active = over 0.2 and 3.5 SD of the protein, either way, in both replicates (recomputed). In a few lines:
(§1)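 K562 cells at 2×10^6 cells/mL were treated with 10 μM compound for 30 min. Aliquots were heated for 3 min across 48°C-58°C, pooled, and extracted in PBS with 0.5% NP-40 at 4°C; soluble protein was the supernatant after 21,000xg for 90 min. Soluble protein was quantified by TMTpro 16plex LC-MS/MS with channel sums equalised, and reported as log2 fold change in thermal stability against DMSO controls, with values from duplicates.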
Consider PARP1 (UniProt P09874), for which the log2 fold change was inactive: 0.079.
Still for that read-out and setting: under PCLAF (UniProt Q15004) stands inactive: -0.046; under PAFAH1B2 (UniProt P68402), inactive: -0.006.
Take PCYT1A (UniProt P49585): the log2 fold change is inactive: -0.001.
With PATL1 (UniProt Q86TB9), the log2 fold change was inactive: 0.155.
Still for that read-out and setting: the value for PECAM1 (UniProt P16284) was inactive: -0.092; that for PCID2 (UniProt Q5JVF3) was inactive: -0.036; that for PARL (UniProt Q9H300) was inactive: 0.029.
The same measure, in the same setting: under PDE2A (UniProt O00408) stands inactive: -0.064; under PAK4 (UniProt O96013), inactive: 0.085.
Still for that read-out and setting: under PAK1 isoform 2 (UniProt Q13153) stands inactive: 0.033; under PARN (UniProt O95453), inactive: 0.04.
Consider PDS5A (UniProt Q29RF7), for which the log2 fold change was inactive: 0.028.
Same read-out and setting: the value for PEX11B (UniProt O96011) was inactive: 0.024; that for PCBP1 (UniProt Q15365) was inactive: 0.052.
Still for that read-out and setting: under PACS1 (UniProt Q6VY07) stands inactive: -0.01; under PCBP2 isoform 3 (UniProt Q15366), inactive: 0.075.
Still for that read-out and setting: the value for PEA15 isoform 2 (UniProt Q15121) was inactive: 0.035; that for PBK (UniProt Q96KB5) was inactive: 0.198; that for PDPK1 (UniProt O15530) was inactive: 0.041.
PCK2 (UniProt Q16822): the log2 fold change is inactive: -0.007.
The same measure, in the same setting: the value for PARG (UniProt Q86W56) was inactive: 0.034.
Same read-out and setting: under PCBP2 (UniProt F8VRH0) stands inactive: 0.014.
The same measure, in the same setting: under PDCD4 (UniProt Q53EL6) stands inactive: 0.073; under PDLIM7 (UniProt Q9NR12), inactive: 0.021.
As to PCYT1B (UniProt Q9Y5K3), the log2 fold change is inactive: 0.04.
The same measure, in the same setting: under PCNT (UniProt O95613) stands inactive: 0.037.
On the same count and under the same terms, the value for PDZD11 isoform 2 (UniProt Q5EBL8) was inactive: 0.007; that for PELP1 (UniProt Q8IZL8) was inactive: -0.012.

Compound in the next assay: COC(=O)[C@H](CCSC)NC(=O)C1=C(C=C(C=C1)NC[C@H](CS)N)C2=CC=CC=C2
The description is as above. In a few lines: as §1
PARP1 (UniProt P09874): the log2 fold change was inactive: -0.04.
The same measure, in the same setting: the value for PCLAF (UniProt Q15004) was inactive: 0.093.
Still for that read-out and setting: under PAFAH1B2 (UniProt P68402) stands inactive: -0.026; under PCYT1A (UniProt P49585), inactive: -0.02; under PATL1 (UniProt Q86TB9), inactive: -0.066.
Still for that read-out and setting: under PECAM1 (UniProt P16284) stands inactive: -0.007; under PCIF1 (UniProt Q9H4Z3), inactive: -0.04.
With PCID2 (UniProt Q5JVF3), the log2 fold change was inactive: -0.101.
On the same count and under the same terms, the value for PARL (UniProt Q9H300) was inactive: 0.015.
On the same count and under the same terms, under PDE2A (UniProt O00408) stands inactive: -0.042; under PAK4 (UniProt O96013), inactive: 0.03.
Turning to PAK1 isoform 2 (UniProt Q13153), the log2 fold change was inactive: 0.048.
The same measure, in the same setting: under PDE6D (UniProt O43924) stands inactive: 0.068; under PARN (UniProt O95453), inactive: 0.014; under PDS5A (UniProt Q29RF7), inactive: 0.006.
The same measure, in the same setting: under PEX11B (UniProt O96011) stands inactive: -0.041; under PCBP1 (UniProt Q15365), inactive: -0.034.
With PACS1 (UniProt Q6VY07), the log2 fold change was inactive: -0.018.
Same read-out and setting: under PCBP2 isoform 3 (UniProt Q15366) stands inactive: -0.058.
Same read-out and setting: under PEA15 isoform 2 (UniProt Q15121) stands inactive: 0.034.
The same measure, in the same setting: under PBX2 (UniProt P40425) stands inactive: -0.044; under PBK (UniProt Q96KB5), inactive: -0.111; under PDPK1 (UniProt O15530), inactive: 0.
PCK2 (UniProt Q16822): the log2 fold change is inactive: 0.01.
On the same count and under the same terms, the value for PARG (UniProt Q86W56) was inactive: -0.025; that for PCBP2 (UniProt F8VRH0) was inactive: 0.066; that for PDCD4 (UniProt Q53EL6) was inactive: -0.097.
PDLIM7 (UniProt Q9NR12): the log2 fold change is inactive: -0.021.
Still for that read-out and setting: under PCYT1B (UniProt Q9Y5K3) stands inactive: -0.029; under PCNT (UniProt O95613), inactive: 0.091.
Take PDZD11 isoform 2 (UniProt Q5EBL8): the log2 fold change is inactive: -0.032.
For the target PELP1 (UniProt Q8IZL8), the log2 fold change is inactive: 0.004.
